Measurements reported in PubChem BioAssay AID743121 (NCATS, 2013)
Aim: 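Knock-downs that sensitise breast cancer cells to camptothecin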 (primary screen). Cell system: MDA-MB-231 cells, a human breast cancer line. Reagent: single siRNA against human genes, 20 nM siRNA (0.8 pmol per well). Time to read-out: 120 h (drug added 48 h after transfection, read 72 h later). Challenge: camptothecin 20 nM (about EC30) for 72 h; vehicle 0.1% DMSO in parallel plates. Read-out: 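CellTiter-Glo ATP signal, scaled to control siRNA as percent viability; sensitisation given as log2 of untreated divided by camptothecin-treated viability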. Scale: log2 vehicle/camptothecin viability: higher = stronger sensitisation to camptothecin. Active means: 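Active genes have an RSA gene-level p-value below 0.001, computed from the ratios of their separate siRNAs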.
Here is a random part of about 26,000 deposited reagents. Of all reagents, 167 (0.63%) were called active. 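Calls are per gene from RSA p-values that are not deposited; an individual active-marked siRNA can sensitise only weakly.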 Reagents against one gene are numbered here. Not all columns of the deposit are shown. Reagent sequences are not shown.

log2 vehicle/camptothecin viability, by target gene and reagent
CGA: #1 -0.236 inactive; #2 0.12 inactive; #3 -0.424 inactive; #4 0.415 inactive
IL5RA: #1 -0.335 inactive; #2 -0.175 inactive; #3 0.236 inactive; #4 -0.19 inactive
LSS: #1 -0.323 inactive; #2 -0.0261 inactive; #3 0.522 inactive
ANXA1: #1 -0.0816 inactive; #2 -0.0719 inactive; #3 0.0747 inactive; #4 -0.0762 inactive
TENM3: #1 0.167 inactive; #2 -0.332 inactive; #3 0.187 inactive; #4 -0.827 inactive
MORC4: #1 -0.224 inactive; #2 -0.161 inactive; #3 -0.0487 inactive; #4 0.598 inactive
IFT22: #1 0.106 inactive; #2 -0.161 inactive; #3 0.0924 inactive; #4 -0.284 inactive
OR3A4P: #1 -0.619 inactive; #2 0.0107 inactive; #3 -0.59 inactive; #4 -0.214 inactive
JADE2: #1 -0.155 inactive; #2 -0.049 inactive; #3 0.59 inactive
CLCNKB: #1 -0.124 inactive; #2 0.321 inactive; #3 -0.523 inactive; #4 0.105 inactive
ANXA2: #1 0.137 inactive; #2 0.0612 inactive; #3 -0.257 inactive; #4 0.365 inactive
SCARB2: #1 0.14 inactive; #2 -0.399 inactive; #3 -0.556 inactive; #4 0.7 inactive
IGFBP1: #1 -0.547 inactive; #2 -0.268 inactive; #3 0.0542 inactive
S1PR4: #1 -0.467 inactive; #2 -0.379 inactive; #3 0.623 inactive; #4 -0.176 inactive
STK25: #1 -0.0641 inactive; #2 -0.39 inactive; #3 -0.189 inactive; #4 -0.494 inactive
TCF4: #1 -0.0896 inactive; #2 -0.0152 inactive; #3 -0.0026 inactive; #4 -0.469 inactive
SAFB: #1 1.03 inactive; #2 -0.202 inactive; #3 0.0617 inactive
HERPUD2: #1 0.021 inactive; #2 0.0617 inactive; #3 -0.188 inactive; #4 -0.115 inactive
